From PubChem BioAssay AID1487 (National Center for Advancing Translational Sciences (NCATS), 2009)
The other results are listed elsewhere or left out. These are further read-outs of the screen, such as a control signal, another cell line or another target. No call is given for them. The list favours compounds with an active or inconclusive main result. The note in brackets gives the kind of curve behind each potency; many fits are weak.

Experiment: qHTS Assay for Modulators of Lamin A Splicing
Conditions: HeLa LMNA splicing GFP/RFP minigene ratio, 48 h
How it was run: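 Read-out is the ratio of GFP to DsRed2 object intensity, acquired by 488 nm laser-scanning cytometry on HeLa lamin A-EGFP minigene reporter cells. Compound incubation 48 hrs at 37 °C in Opti-MEM with 2% FBS; DMSO 0.5% final.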

[1] = measured here: RFP viability control channel
[2] = measured here: GFP splicing reporter channel

SMILES | AC50 [1] | AC50 [2]
CCOc1ccc(CCNC(=O)c2cc3ccccn3n2)cc1OCC | 22.4 µM [rising, single point] | –
Cc1cc(N2CCN(c3ccc(F)cc3)CC2)nc(-c2ccccc2)n1 | 12.6 µM [rising, single point] | –
CN(CCC#N)S(=O)(=O)c1ccc2[nH]cc(C(=O)NCCc3ccccc3)c(=O)c2c1 | 35.5 µM [rising, single point] | 31.6 µM [rising, single point]
Cc1ccccc1Nc1nnc(SCc2cc([N+](=O)[O-])cc3c2OCOC3)s1 | 14.1 µM [rising, single point] | 11.2 µM [rising, single point]
O=C(c1ccccc1)c1coc2ccc(O)c(Cl)c12 | 31.6 µM [rising, single point] | 15.8 µM [rising, single point]
Cc1ccc(N(Cc2cc3ccccc3[nH]c2=O)C(=O)c2cccs2)cc1 | 17.8 µM [rising, single point] | –
Cc1ccc(CN2CCC(c3cc(-c4cccs4)n[nH]3)CC2)cc1 | 35.5 µM [falling, partial curve, poor fit] | 35.5 µM [falling, single point]
O=C(NCc1ccc2c(c1)OCO2)c1ccc2snnc2c1 | 31.6 µM [rising, single point] | –
Cc1nc(SCC(=O)c2ccccc2)n[nH]1 | 0.282 µM [falling, full curve, poor fit] | –
Cn1c(=O)c2c(nc(N/N=C/c3ccc(OC(=O)c4ccco4)cc3)n2Cc2ccccc2Cl)n(C)c1=O | 2.82 µM [rising, partial curve] | 0.178 µM [rising, partial curve]
CCOc1cc(C(=O)Nc2ccc3c(c2)OCO3)ccc1OCCOc1ccccc1Cl | – | 6.31 µM [rising, partial curve]
O=C(Nc1ccc(OC(F)(F)F)cc1)c1ccc(-n2cncn2)nc1 | 14.1 µM [falling, partial curve, poor fit] | 15.8 µM [falling, partial curve, poor fit]
CCCN1CCC2(CC1)C(C#N)=C(N)Oc1c2sc2nc(C)cc(C)c12 | 10 µM [rising, single point] | –
CCOC(=O)c1ccc(Nc2c(CC)c(C)nc3ncnn23)cc1 | 22.4 µM [rising, single point] | –
O=C1c2ccccc2C(=O)N1CCCCSc1nnc(-c2ccc(OC(F)F)cc2)o1 | 35.5 µM [rising, single point] | 35.5 µM [rising, single point]
CCN(CC)c1ccc(/C=N/N=C(c2ccccc2)c2ccccc2)c(O)c1 | 3.98 µM [rising, single point] | –
O=C(Nc1cc(-c2ccccc2F)nn1-c1ccccc1)c1ccccc1Br | – | 0.398 µM [rising, full curve]
COc1ccc(/C=C/C2=NNC(=O)CC2)cc1 | 1 µM [falling, full curve] | –
C=CCSc1nc2ccccc2c(=O)n1Cc1ccccc1 | 28.2 µM [rising, single point] | 0.1 µM [rising, full curve]

Nothing new here: an excerpt of the list.
SMILES | AC50 [1] | AC50 [2]
CN(CCC#N)S(=O)(=O)c1ccc2[nH]cc(C(=O)NCCc3ccccc3)c(=O)c2c1 | 35.5 µM [rising, single point] | 31.6 µM [rising, single point]
Cc1ccccc1Nc1nnc(SCc2cc([N+](=O)[O-])cc3c2OCOC3)s1 | 14.1 µM [rising, single point] | 11.2 µM [rising, single point]
O=C(c1ccccc1)c1coc2ccc(O)c(Cl)c12 | 31.6 µM [rising, single point] | 15.8 µM [rising, single point]
Cc1ccc(N(Cc2cc3ccccc3[nH]c2=O)C(=O)c2cccs2)cc1 | 17.8 µM [rising, single point] | –
Cc1ccc(CN2CCC(c3cc(-c4cccs4)n[nH]3)CC2)cc1 | 35.5 µM [falling, partial curve, poor fit] | 35.5 µM [falling, single point]
O=C(NCc1ccc2c(c1)OCO2)c1ccc2snnc2c1 | 31.6 µM [rising, single point] | –
Cc1nc(SCC(=O)c2ccccc2)n[nH]1 | 0.282 µM [falling, full curve, poor fit] | –
Cn1c(=O)c2c(nc(N/N=C/c3ccc(OC(=O)c4ccco4)cc3)n2Cc2ccccc2Cl)n(C)c1=O | 2.82 µM [rising, partial curve] | 0.178 µM [rising, partial curve]
CCOc1cc(C(=O)Nc2ccc3c(c2)OCO3)ccc1OCCOc1ccccc1Cl | – | 6.31 µM [rising, partial curve]
O=C(Nc1ccc(OC(F)(F)F)cc1)c1ccc(-n2cncn2)nc1 | 14.1 µM [falling, partial curve, poor fit] | 15.8 µM [falling, partial curve, poor fit]
CCCN1CCC2(CC1)C(C#N)=C(N)Oc1c2sc2nc(C)cc(C)c12 | 10 µM [rising, single point] | –
CCOC(=O)c1ccc(Nc2c(CC)c(C)nc3ncnn23)cc1 | 22.4 µM [rising, single point] | –
O=C1c2ccccc2C(=O)N1CCCCSc1nnc(-c2ccc(OC(F)F)cc2)o1 | 35.5 µM [rising, single point] | 35.5 µM [rising, single point]

(listing goes on)

SMILES | AC50 [1] | AC50 [2]
O=C(O)CN1C(=O)/C(=C/c2ccc(SCc3ccccc3)o2)SC1=S | 35.5 µM [rising, single point] | –
CC(=O)Nc1cc(C(=O)OCc2cccc([N+](=O)[O-])c2)ccc1C | 3.16 µM [rising, partial curve, poor fit] | 1.12 µM [rising, full curve, poor fit]
Cc1[nH]c(=O)[nH]c(=O)c1S(=O)(=O)N(CC(C)C)CC(C)C | 2.51 µM [falling, partial curve] | –
CN(/C=C/c1c([N+](=O)[O-])c(=O)n(C)c(=O)n1C)c1ccccc1 | 35.5 µM [falling, single point] | –
Cc1cc(C)c2c(CC(=O)NCCc3ccccc3)coc2c1 | 4.47 µM [falling, partial curve] | –
CCc1ccccc1N1C(=O)C2CC=CCC2C1=O (stereo unspecified) | 0.0447 µM [falling, full curve, poor fit] | –
COc1ccccc1OC[C@H](O)CO | 1.78 µM [falling, partial curve, poor fit] | 3.16 µM [falling, partial curve, poor fit]
Cc1ccc(OCc2nc(-c3ccccn3)no2)c(Br)c1 | – | 12.6 µM [rising, single point]
CC(=O)c1c(C)[nH]c(C(=O)NCc2ccccc2)c1C | 0.891 µM [falling, full curve, poor fit] | –
C=CCn1c(NCCO)nc2c1c(=O)n(C)c(=O)n2C | 35.5 µM [rising, single point] | –
Cc1onc(-c2ccccc2)c1C(=O)NC(=S)NNC(=O)c1cccnc1 | 31.6 µM [rising, single point] | –
Cc1cc(C)n(-c2nnc(SCC(=O)NC3CCCC3)c3ccccc23)n1 | 35.5 µM [rising, single point] | –
COc1ccc(-n2c(SCc3ccccc3F)nc3c([nH]c4ccccc43)c2=O)cc1OC | 5.01 µM [falling, full curve] | 7.08 µM [falling, full curve]
Cc1ccccc1NC(=O)C(C)c1ccc(-c2ccccc2)c(F)c1 (stereo unspecified) | 31.6 µM [rising, single point] | –
Cc1cc(/C=C(/C#N)C(=O)O)c(C)n1CCC(C)C | 11.2 µM [rising, single point] | 11.2 µM [rising, partial curve]
CCOc1cc(Br)c(C=O)cc1OCC | – | 35.5 µM [falling, partial curve, poor fit]
COCCNC(=O)CSc1nc2c(n1-c1ccccc1)CCCC2 | – | 14.1 µM [rising, partial curve]
O=[N+]([O-])c1cccc(/C=C/C=N/Nc2nc(N3CCCCC3)nc(N3CCCCC3)n2)c1 | 0.0141 µM [falling, full curve, poor fit] | –
Cc1cccc(C(=O)NC(=S)Nc2ccc(N3CCOCC3)cc2)c1 | 35.5 µM [rising, single point] | 28.2 µM [rising, single point]

SMILES | AC50 [1] | AC50 [2]
COc1ccc(C(=O)N2CCOC2CNC(=O)C(=O)NCc2ccc(Cl)cc2)cc1 (stereo unspecified) | 6.31 µM [rising, partial curve] | 0.141 µM [rising, partial curve]
O=C(COc1ccc(C(=O)c2ccc(F)cc2)cc1)NCc1ccc(F)cc1 | 0.794 µM [rising, full curve, poor fit] | –
O=C1Nc2ccc(I)cc2/C1=C/c1cc(Br)c(O)c(Br)c1 | 11.2 µM [falling, partial curve] | 12.6 µM [falling, partial curve]
O=C(COC(=O)c1ccccc1C(=O)c1ccccc1)Nc1cccc([N+](=O)[O-])c1 | 11.2 µM [rising, partial curve] | 7.94 µM [rising, partial curve]
COc1ccc(C(=O)C(CN2CCOCC2)c2ccccc2)cc1F (stereo unspecified) | 35.5 µM [falling, single point] | –
O=C1c2ccccc2NC(c2c(Cl)cccc2Cl)N1Cc1ccccc1 (stereo unspecified) | 22.4 µM [falling, partial curve, poor fit] | –
Cc1ccc(C(=O)CSc2ccc(-c3ccccc3)nn2)cc1 | 15.8 µM [rising, partial curve, poor fit] | –
Cc1nnc(SCC(=O)N/N=C/c2cn(-c3ccccc3)nc2-c2ccccc2)n1-c1ccccc1 | 0.0355 µM [falling, single point] | 0.0251 µM [falling, partial curve]
Cc1nc2ccccc2c2oc(C(=O)NCC3COc4ccccc4O3)cc12 (stereo unspecified) | 6.31 µM [rising, partial curve] | –
Cn1nc(CC(=O)Nc2ncc(Br)s2)c2ccccc2c1=O | 7.08 µM [rising, full curve] | 3.16 µM [rising, full curve]
NC(=O)c1ccccc1NC(=O)CN1c2ccccc2S(=O)(=O)c2ccccc21 | 5.62 µM [rising, single point] | –
CCOC(=O)C(C)Sc1ncc(-c2ccc(Cl)cc2)cn1 (stereo unspecified) | 0.0178 µM [rising, full curve, poor fit] | 0.0251 µM [rising, full curve, poor fit]
Cc1cc(C(=O)OCC(=O)N2CCOCC2)ccc1[N+](=O)[O-] | 0.0631 µM [falling, full curve, poor fit] | –
FC(F)(F)c1ccc2c(c1)n(Cc1ccccc1)c1[n+]2CCCCC1 | – | 0.282 µM [rising, full curve, poor fit]
CC(C)C(=O)Nc1nc(-c2ccc([N+](=O)[O-])cc2)cs1 | 1.26 µM [falling, full curve, poor fit] | –
CCOc1ccc(OCC)c(NC(=O)c2cnc(SC)nc2-c2ccccc2)c1 | 11.2 µM [rising, partial curve] | –
Cc1ccc(C)c(NC(=O)CSc2nc3c([nH]c4ccccc43)c(=O)n2-c2ccc(F)cc2)c1 | 15.8 µM [falling, single point] | –
COc1ccc2c(c1)C=CC1(O2)N(CCO)c2ccccc2C1(C)C (stereo unspecified) | 3.16 µM [falling, full curve] | –
O=C(Oc1cccc(Nc2ncnc3ccccc23)c1)c1ccccc1Cl | 11.2 µM [rising, partial curve] | –
